# According to PubChem BioAssay AID485314 (National Center for Advancing Translational Sciences (NCATS), 2010):
# Screen size: about 340,000 compounds; about 4,500 (1.3%) were called active. Inconclusive results, whose numbers are uncertain, are shown with a selection of clear calls. Calls follow the shape of the dose curve; as a rule, active = well fitted inhibition curve with a large enough effect; inconclusive = small, poorly fitted or top-dose-only effect, or another doubt; inactive = no such curve, though single readings can be large or run the other way. A potency beside an inconclusive call is a rough fit, not a confirmed value.
# Target: DNA polymerase beta (Homo sapiens) (UniProt P06746)
# Experiment: qHTS Assay for Inhibitors of DNA Polymerase Beta
# Settings: Pol beta primer extension/strand displacement, fluorescence kinetic; activity change, negative = inhibition: at 114 µM (top of the series)
# Summary of the method: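 Pol beta (10 nM) was preincubated with compound for 15 min at room temperature. The reaction was then started with 50 nM substrate and read immediately and after a further 10 min at room temperature.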
# % is scaled to controls: 0 for no effect and ±100 for the full control effect; potency is read from the fitted curve at half-maximal effect.
Compound,Potency,"activity change, negative = inhibition"
Cc1nc2ccc(NC(=S)NC3CC3)cc2nc1C,inactive,–
O=C(c1nc2ccc(Cl)cn2c1CNCC[C@@H]1C[C@@H]2C=C[C@H]1C2)N1CCCCCCC1,"inconclusive: 10 µM [inhibitor, partial curve]",–
COc1ccc(CC2(CO)CCN(CC3=CC[C@H]4C[C@@H]3C4(C)C)CC2)cc1,"inconclusive: 1.41 µM [inhibitor, full curve, poor fit]",–
COc1ccc2c(c1)c(CC(=O)NCc1cc([N+](=O)[O-])ccc1O)c(C)n2C(=O)c1ccc(Cl)cc1,active: 39.8 µM,–
Cc1cc(Nc2cccc(F)c2)nc(NCc2ccccc2)n1,"inconclusive: 79.4 µM [inhibitor, single point]",–
O=C1C(=O)N(C2CCN(C(=O)c3ccc(F)cc3)CC2)CCN1Cc1ccc(F)cc1,inactive,–
CCc1ccccc1NC(=O)c1nnn(CC(=O)Nc2cccc(C)c2C)c1N,"inconclusive: 5.01 µM [inhibitor, full curve, poor fit]",–
Cc1cccc(OC(C)C(=O)N2CCC(c3nc4ccccc4o3)CC2)c1C (stereo not drawn),inactive,–
O=C1c2ccccc2C(=O)c2c(NCCCN(CCO)CCO)cccc21,active: 44.7 µM,–
CN(C)c1nc(N/N=C/c2ccccc2O)nc(Nc2ccc(F)cc2)n1,"inconclusive: 63.1 µM [inhibitor, partial curve, poor fit]",–
Cc1cc(C)cc(OCCOCCn2c(-c3ccc(Cl)cc3)nc3ccccc3c2=O)c1,inactive,–
COc1ccc(CNC(=O)C(C)n2nc(C)c3c(C)n(-c4ccc(C)cc4)nc3c2=O)cc1 (stereo not drawn),"inconclusive: 63.1 µM [inhibitor, single point]",–
CC(C)CCC(C(=O)O)C(C)CC(=O)NNC(=O)c1ccco1 (stereo not drawn),"inconclusive: 44.7 µM [inhibitor, single point]",–
CCOC(=O)c1ccc(-c2ccc(/C=C(\C#N)C(=O)Nc3cccc(C)c3)o2)cc1,inactive,–
COc1ccc2oc(=O)c(C(=O)Nc3cccc(C)c3)cc2c1,"inconclusive: 0.794 µM [inhibitor, partial curve, poor fit]",–
O=C(NCc1ccco1)C1Cc2ccccc2CN1C(=O)c1ccco1 (stereo not drawn),active: 22.4 µM,–
CC(=O)c1cccc(-n2c(CCC(=O)O)ccc2-c2ccccc2)c1,"inconclusive: 12.6 µM [inhibitor, partial curve, poor fit]",–
CCOC(=O)C1(C(C)(C)CC)CC(CSc2nc3ccccc3[nH]2)OC1=O (stereo not drawn),"inconclusive: 100 µM [inhibitor, single point]",–
O=C(NNC(=O)C1C2CCCCC21)c1coc(=O)c(Br)c1 (stereo not drawn),–,inconclusive: -59% [inhibitor]
COCCN1C=C(C(=O)OC)C(c2cc(Br)c(OC)c(OC)c2)C(C(=O)OC)=C1,"inconclusive: 1.26 µM [inhibitor, full curve, poor fit]",–
Cn1c(NCc2ccccc2F)nc2ccccc21,"inconclusive: 39.8 µM [inhibitor, single point]",–
NC(=O)c1ccccc1OCc1nnc(-c2ccccc2Br)o1,"inconclusive: 20 µM [inhibitor, full curve]",–

Compound,Potency,"activity change, negative = inhibition"
Cc1cc(CNC(=O)C2CCC(=O)N(Cc3ccccc3F)C2)nn1C (stereo not drawn),–,inconclusive: -56.7% [inhibitor]
Cc1ncc(CO)c(/C=N/NC(=S)Nc2ccc(F)cc2)c1O,inactive,–
Cc1ccc(NC(=O)N2CCC(c3nc4c(nnn4Cc4c(F)cccc4Cl)c(=O)[nH]3)CC2)cc1,"inconclusive: 0.141 µM [inhibitor, full curve, poor fit]",–
COc1ccccc1-c1nnc(SC/C(O)=C(\C#N)c2nc3ccccc3[nH]2)n1C1CCCCC1,inactive,–
Cc1ccc(OCCSc2nc3ccccc3n2CCC(=O)O)cc1C,–,inconclusive: -50.9% [inhibitor]
COc1cc(/C=N/Nc2cc(C)nc(NS(=O)(=O)c3ccc(C)cc3)n2)ccc1O,"inconclusive: 89.1 µM [inhibitor, single point]",–
CCOC(=O)c1cnc(SC)nc1Sc1ccccc1,"inconclusive: 0.891 µM [inhibitor, full curve, poor fit]",–
Cc1nn(CC(=O)N2CCC(N3CCCCC3)CC2)c(=O)c2c1sc1ccccc12,–,inconclusive: -32.4% [inhibitor]
CC1CCCCC12NC(=O)N(Cc1cc(=O)n3ccsc3n1)C2=O (stereo not drawn),"inconclusive: 17.8 µM [inhibitor, full curve]",–
Oc1ccc(/C=N/Nc2nc(-c3cccnc3)nc3ccccc23)c(O)c1,"inconclusive: 14.1 µM [inhibitor, full curve, poor fit]",–
C=C1C(C(=O)Nc2ccc(OC)cc2)C1C(=O)Nc1ccc(OC)cc1 (stereo not drawn),"inconclusive: 89.1 µM [inhibitor, single point]",–
O=C(COc1ccccc1[N+](=O)[O-])N1CCN(C(=O)c2ccco2)CC1,"inconclusive: 89.1 µM [inhibitor, single point]",–
COc1ccccc1C(=O)N1CCC(c2c[nH]c3ccccc23)(c2c[nH]c3ccccc23)CC1,inactive,–
Cc1ccc(C)c(NC(=O)NNC(=O)c2cc3ccccc3cc2O)c1,active: 35.5 µM,–
O=C(Nn1nnnc1Nc1ccccc1)C12CC3CC(CC(C3)C1)C2,inactive,–
O=S1(=O)c2ccccc2N=NN1Cc1ccc(Cl)cc1,"inconclusive: 35.5 µM [inhibitor, partial curve]",–
O=C(CCc1nnc(CCCCc2ccccc2)o1)NCc1cccc(F)c1,"inconclusive: 79.4 µM [inhibitor, single point]",–
Cn1nnnc1SCC1=C(C(=O)O)N2C(=O)[C@@H](NC(=O)[C@H](O)c3ccccc3)[C@H]2SC1,active: 10 µM,–
COc1cccc(/C=C/C(=O)OCC(=O)N2CCN(S(=O)(=O)c3ccc(Cl)cc3)CC2)c1,"inconclusive: 3.55 µM [inhibitor, full curve, poor fit]",–
CCOc1ccc(N2CSC3=C(C#N)C(c4ccco4)CC(=O)N3C2)cc1 (stereo not drawn),active: 25.1 µM,–
CCOC(=O)C1(Cc2cccc(F)c2)CCN(CCCn2cccn2)CC1,"inconclusive: 20 µM [inhibitor, single point]",–

# 2 records drawn at random from those above, as already listed:
Compound,Potency,"activity change, negative = inhibition"
CCOC(=O)c1cnc(SC)nc1Sc1ccccc1,"inconclusive: 0.891 µM [inhibitor, full curve, poor fit]",–
Cc1cc(CNC(=O)C2CCC(=O)N(Cc3ccccc3F)C2)nn1C (stereo not drawn),–,inconclusive: -56.7% [inhibitor]
